Assay results reported in paper PMC10761967.
Results are given in words; binding and its absence hold for the method and conditions named. Some binding calls cover weakened binding; strength is not graded here.

T1: human POC1B (human) (UniProt Q8TC44)
T1 sequence: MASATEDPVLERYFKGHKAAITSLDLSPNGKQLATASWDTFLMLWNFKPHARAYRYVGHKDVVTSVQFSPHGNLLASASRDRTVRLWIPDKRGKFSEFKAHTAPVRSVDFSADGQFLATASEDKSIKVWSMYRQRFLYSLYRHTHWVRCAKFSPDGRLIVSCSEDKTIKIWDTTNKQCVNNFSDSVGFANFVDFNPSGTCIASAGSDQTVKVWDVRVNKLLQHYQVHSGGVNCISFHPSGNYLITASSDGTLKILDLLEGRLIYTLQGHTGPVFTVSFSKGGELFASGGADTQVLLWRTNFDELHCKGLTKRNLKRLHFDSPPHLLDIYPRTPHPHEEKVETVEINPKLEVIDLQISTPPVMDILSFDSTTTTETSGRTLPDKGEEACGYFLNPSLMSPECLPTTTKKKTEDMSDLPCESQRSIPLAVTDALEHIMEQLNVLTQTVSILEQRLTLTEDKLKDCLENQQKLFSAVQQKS

T2: human POC1B C-terminus, amino acids 365–478 (human) (UniProt Q8TC44)
T2 sequence: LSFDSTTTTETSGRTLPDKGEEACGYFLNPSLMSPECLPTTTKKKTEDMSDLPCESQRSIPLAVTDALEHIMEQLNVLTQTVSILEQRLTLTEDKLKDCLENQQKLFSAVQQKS


Tests used:
human POC1B (human) = target: T1, human POC1B (human); assay: two-hybrid; GAL4-based yeast two-hybrid, GAL4-BD (pGBKT7) and GAL4-AD (pGADT7) fusions co-transformed in yeast strain AH109; selection on DDO (-Leu, -Trp), interaction confirmed on TDO (-Leu, -Trp, -His) and QDO (-Leu, -Trp, -His, -Ade)
[1] = target: T2, human POC1B C-terminus, amino acids 365–478 (human); assay: as above

binding (human POC1B (human)) | binding [1] | Binder
binds | – | human FAM161A type 2, amino acids 1–141 (domain or fragment, UniProt Q3B820-3 1-141) MATSHRVAKLVASSLQTPVNPITGARVAQYEREDPLKALAAAEAILEDEEEEKVAQPAGASADLNTSFSGVDEHAPISYEDFVNFPDIHHSNEEYFKKVEELKAAHIETMAKLEKMYQDKLHLKEVQPVVIREDSLSDSSR
– | binds | human POC5 N-terminus, amino acids 1–222 (domain or fragment, UniProt Q8NA72 1-222) MSSDEEKYSLPVVQNDSSRGSSVSSNLQEEYEELLHYAIVTPNIEPCASQSSHPKGELVPDVRISTIHDILHSQGNNSEVRETAIEVGKGCDFHISSHSKTDESSPVLSPRKPSHPVMDFFSSHLLADSSSPATNSSHTDAHEILVSDFLVSDENLQKMENVLDLWSSGLKTNIISELSKWRLNFIDWHRMEMRKEKEKHAAHLKQLCNQINELKELQKTFE
